Assay results from the supplement of paper PMC11006884.
Only a part is listed here, and it is no random draw.

Sequences of proteins named here, by UniProt entry; tags and fusion partners are left off. A change or cut given only in a name is not applied to a line headed by its entry.
UniProt Q9Y490: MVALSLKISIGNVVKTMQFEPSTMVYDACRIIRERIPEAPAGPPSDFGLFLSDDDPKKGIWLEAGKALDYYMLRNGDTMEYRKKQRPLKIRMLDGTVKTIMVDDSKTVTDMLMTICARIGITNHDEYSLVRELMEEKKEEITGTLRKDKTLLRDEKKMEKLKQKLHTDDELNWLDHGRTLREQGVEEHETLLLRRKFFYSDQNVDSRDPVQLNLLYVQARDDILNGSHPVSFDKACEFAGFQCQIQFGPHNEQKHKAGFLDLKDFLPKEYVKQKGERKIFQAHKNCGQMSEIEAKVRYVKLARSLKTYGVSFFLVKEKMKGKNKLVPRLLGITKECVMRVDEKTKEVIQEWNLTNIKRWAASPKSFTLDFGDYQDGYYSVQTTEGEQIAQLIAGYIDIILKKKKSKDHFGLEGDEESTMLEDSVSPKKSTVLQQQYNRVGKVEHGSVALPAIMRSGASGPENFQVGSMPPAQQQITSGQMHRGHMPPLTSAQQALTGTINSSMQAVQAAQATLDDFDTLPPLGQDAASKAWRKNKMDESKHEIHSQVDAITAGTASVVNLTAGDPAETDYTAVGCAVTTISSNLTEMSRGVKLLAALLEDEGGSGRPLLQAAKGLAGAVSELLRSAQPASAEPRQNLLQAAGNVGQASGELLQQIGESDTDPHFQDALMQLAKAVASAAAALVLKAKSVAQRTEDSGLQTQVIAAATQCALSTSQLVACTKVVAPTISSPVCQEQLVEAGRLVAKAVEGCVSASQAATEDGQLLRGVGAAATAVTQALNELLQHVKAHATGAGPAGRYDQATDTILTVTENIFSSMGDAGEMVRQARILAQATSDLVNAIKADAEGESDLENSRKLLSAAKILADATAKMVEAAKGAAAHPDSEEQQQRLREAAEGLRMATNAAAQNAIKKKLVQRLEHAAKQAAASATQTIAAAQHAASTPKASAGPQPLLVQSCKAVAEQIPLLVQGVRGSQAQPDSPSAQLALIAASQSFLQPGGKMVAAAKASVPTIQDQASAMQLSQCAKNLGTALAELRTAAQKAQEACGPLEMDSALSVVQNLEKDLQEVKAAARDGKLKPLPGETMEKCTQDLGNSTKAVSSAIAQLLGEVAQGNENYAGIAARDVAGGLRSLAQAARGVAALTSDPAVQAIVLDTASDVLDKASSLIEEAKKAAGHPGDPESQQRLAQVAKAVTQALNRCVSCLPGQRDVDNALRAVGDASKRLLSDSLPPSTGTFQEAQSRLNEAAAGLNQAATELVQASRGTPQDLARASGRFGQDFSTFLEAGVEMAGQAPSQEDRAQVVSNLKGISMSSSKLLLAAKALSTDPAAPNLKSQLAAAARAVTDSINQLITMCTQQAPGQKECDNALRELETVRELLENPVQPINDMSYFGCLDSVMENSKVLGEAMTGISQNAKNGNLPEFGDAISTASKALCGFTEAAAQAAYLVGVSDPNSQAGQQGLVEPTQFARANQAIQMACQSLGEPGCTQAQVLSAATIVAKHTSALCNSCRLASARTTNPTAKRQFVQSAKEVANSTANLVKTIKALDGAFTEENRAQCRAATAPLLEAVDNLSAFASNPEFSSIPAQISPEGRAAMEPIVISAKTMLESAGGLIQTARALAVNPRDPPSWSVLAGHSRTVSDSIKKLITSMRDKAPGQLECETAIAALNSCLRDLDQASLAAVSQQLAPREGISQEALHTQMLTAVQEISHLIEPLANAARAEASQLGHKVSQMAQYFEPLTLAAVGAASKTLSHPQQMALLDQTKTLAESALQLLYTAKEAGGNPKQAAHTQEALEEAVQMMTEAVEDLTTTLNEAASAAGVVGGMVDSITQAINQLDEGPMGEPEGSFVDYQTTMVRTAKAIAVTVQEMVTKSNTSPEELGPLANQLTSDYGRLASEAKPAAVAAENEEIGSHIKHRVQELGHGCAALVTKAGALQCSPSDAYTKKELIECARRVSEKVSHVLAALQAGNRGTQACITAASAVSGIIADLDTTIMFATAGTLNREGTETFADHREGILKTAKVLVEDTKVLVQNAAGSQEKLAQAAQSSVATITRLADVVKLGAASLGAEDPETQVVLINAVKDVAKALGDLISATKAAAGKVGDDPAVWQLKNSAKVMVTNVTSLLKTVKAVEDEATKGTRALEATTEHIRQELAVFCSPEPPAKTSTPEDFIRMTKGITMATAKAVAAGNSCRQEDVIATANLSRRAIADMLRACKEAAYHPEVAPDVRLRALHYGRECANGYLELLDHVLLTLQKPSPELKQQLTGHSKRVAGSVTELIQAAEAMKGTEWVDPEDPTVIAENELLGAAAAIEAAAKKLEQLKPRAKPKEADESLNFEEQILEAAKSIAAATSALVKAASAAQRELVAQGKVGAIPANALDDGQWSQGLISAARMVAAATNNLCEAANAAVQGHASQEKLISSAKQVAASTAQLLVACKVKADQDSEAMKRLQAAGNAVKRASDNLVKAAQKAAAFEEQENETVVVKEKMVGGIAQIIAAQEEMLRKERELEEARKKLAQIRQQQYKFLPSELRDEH
UniProt Q9Y673: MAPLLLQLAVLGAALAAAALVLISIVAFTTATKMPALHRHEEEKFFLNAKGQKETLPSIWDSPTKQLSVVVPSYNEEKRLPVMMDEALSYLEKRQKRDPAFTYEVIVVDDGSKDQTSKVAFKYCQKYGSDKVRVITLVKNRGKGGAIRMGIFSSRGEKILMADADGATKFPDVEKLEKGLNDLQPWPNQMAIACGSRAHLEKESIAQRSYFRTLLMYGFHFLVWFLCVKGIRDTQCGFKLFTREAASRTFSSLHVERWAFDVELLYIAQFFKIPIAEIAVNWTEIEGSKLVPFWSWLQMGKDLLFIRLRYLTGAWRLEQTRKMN
UniProt Q9Y5J1: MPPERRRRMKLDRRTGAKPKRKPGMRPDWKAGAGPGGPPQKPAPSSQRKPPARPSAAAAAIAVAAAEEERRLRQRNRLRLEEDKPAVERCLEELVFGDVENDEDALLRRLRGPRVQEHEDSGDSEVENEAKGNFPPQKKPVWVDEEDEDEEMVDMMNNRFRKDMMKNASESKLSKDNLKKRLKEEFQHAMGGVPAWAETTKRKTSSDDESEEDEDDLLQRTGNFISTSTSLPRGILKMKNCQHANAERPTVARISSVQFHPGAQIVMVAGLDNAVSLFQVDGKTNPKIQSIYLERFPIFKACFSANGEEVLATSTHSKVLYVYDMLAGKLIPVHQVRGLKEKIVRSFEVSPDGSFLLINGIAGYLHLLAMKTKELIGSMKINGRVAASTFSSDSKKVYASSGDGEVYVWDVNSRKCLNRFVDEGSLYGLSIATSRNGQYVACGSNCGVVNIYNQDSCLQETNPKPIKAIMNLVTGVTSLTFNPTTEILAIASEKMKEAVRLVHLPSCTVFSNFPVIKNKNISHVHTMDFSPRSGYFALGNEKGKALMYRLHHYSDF
UniProt Q9Y4R8, whole entry, looked up: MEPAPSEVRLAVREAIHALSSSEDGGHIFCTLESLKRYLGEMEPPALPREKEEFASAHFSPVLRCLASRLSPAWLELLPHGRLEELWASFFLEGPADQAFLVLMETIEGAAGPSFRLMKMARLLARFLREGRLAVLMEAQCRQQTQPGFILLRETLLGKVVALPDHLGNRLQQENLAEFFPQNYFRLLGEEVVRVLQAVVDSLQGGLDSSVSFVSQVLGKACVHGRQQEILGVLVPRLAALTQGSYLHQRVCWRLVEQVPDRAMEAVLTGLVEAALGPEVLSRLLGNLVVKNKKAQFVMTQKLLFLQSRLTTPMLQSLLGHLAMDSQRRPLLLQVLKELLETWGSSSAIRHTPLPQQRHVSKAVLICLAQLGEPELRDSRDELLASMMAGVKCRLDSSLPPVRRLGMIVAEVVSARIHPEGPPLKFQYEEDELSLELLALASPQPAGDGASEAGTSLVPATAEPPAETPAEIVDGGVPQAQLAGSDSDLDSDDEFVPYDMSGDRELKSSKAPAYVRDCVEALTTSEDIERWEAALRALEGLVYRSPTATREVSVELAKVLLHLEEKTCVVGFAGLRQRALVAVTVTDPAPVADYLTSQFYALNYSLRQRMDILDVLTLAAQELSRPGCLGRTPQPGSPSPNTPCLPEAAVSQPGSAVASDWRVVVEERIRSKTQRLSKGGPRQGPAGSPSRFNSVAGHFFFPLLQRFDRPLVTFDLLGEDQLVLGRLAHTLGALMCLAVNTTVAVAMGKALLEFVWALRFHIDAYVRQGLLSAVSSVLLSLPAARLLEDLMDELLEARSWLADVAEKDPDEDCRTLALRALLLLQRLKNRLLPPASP
UniProt Q9Y4Z0: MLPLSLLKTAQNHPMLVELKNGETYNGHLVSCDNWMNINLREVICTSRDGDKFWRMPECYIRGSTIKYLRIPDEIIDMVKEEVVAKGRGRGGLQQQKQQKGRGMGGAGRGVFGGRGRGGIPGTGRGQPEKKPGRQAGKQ
UniProt Q9Y4E8: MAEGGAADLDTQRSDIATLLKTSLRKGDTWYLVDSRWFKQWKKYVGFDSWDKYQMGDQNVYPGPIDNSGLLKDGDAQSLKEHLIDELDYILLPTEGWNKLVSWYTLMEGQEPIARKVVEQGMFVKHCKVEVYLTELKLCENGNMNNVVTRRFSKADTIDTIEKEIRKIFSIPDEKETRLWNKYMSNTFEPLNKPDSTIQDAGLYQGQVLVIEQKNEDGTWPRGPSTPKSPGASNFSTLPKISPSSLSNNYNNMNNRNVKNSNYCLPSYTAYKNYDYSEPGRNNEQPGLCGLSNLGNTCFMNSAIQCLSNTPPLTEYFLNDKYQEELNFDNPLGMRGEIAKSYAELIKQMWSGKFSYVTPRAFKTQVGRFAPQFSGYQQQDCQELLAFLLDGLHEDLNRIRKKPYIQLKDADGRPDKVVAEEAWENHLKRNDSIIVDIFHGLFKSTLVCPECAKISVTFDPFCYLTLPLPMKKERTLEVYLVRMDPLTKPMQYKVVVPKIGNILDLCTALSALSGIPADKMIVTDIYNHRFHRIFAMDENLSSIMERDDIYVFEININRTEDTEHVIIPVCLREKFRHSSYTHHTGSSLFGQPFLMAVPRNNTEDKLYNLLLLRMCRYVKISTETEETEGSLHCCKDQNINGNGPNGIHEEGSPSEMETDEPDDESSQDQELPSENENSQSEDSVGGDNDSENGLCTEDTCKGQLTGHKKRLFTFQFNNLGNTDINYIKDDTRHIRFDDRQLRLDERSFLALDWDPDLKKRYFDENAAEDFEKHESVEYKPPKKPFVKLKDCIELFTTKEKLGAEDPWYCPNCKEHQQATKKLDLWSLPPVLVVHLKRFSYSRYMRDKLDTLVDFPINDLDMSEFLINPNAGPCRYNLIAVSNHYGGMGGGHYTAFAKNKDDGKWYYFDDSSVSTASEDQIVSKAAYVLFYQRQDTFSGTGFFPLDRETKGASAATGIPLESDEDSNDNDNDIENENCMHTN
UniProt Q9Y4C2: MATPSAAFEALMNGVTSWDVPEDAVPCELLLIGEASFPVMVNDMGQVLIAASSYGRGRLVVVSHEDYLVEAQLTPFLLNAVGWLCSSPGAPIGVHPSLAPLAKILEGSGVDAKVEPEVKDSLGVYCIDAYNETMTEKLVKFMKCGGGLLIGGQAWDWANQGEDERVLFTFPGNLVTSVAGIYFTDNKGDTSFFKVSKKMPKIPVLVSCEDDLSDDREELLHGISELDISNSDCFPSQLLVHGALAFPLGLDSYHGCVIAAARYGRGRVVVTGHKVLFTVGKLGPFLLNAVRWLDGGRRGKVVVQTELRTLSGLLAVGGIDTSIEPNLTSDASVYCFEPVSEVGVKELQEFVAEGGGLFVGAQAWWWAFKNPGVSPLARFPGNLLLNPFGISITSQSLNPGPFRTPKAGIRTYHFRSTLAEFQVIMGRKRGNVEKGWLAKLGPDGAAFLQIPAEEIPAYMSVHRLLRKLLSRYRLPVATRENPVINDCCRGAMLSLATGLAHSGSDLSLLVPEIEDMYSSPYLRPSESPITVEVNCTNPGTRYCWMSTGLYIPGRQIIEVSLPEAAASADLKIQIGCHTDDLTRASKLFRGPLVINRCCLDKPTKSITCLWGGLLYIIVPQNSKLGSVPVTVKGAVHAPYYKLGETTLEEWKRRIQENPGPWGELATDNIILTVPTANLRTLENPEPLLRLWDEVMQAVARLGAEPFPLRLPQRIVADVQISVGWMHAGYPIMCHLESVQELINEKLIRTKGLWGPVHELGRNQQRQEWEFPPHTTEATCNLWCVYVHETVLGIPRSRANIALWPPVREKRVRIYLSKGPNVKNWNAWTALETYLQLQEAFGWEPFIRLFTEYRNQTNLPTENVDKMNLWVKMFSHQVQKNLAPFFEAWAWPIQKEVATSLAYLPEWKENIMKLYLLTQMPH
UniProt Q9Y696: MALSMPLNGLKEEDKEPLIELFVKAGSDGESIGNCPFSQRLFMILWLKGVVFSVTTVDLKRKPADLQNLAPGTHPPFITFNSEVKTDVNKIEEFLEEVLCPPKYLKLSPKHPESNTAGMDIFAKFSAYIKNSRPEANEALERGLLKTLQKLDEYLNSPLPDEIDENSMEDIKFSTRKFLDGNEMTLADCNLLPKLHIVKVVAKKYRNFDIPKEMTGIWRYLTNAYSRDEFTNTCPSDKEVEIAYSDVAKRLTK

compound: COC(=O)C#Cc1ccccc1 [methyl 3-phenylpropiolate]; assay: log2 ratio of iodoacetamide-alkyne labeling of the cysteine site, DMSO over compound (competition); higher = stronger covalent engagement of the cysteine by the compound, active = 1 or more; settings: 500 µM; treatment time 1 h; system: HEK293T cell lysate
Method in brief: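 Electrophile (500 µM) or vehicle was added to HEK293T lysate (2 mg/mL) for 1 h at ambient temperature before iodoacetamide alkyne labelling (1 h) and click coupling to sCIP-TMT reagents. After pooling, overnight trypsin digestion at 37 °C, streptavidin enrichment and acid elution, peptides were measured by Orbitrap Eclipse LC-MS/MS with FAIMS and quantified in FragPipe. Each cysteine's log2 competition ratio compares mean control-channel with mean compound-channel reporter intensity, control over compound. Data came from duplicate channels across three replicates, excluding cysteines quantified in only one replicate.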

log2 ratio of iodoacetamide-alkyne labeling, inactive:
TACC3 C459 (UniProt Q9Y6A5) 0.32, RBM19 C293 (UniProt Q9Y4C8) -0.167, TLN1 C1045 (UniProt Q9Y490) 0.0256, SNX9 C252 (UniProt Q9Y5X1) 0.334, ALG5 C194 (UniProt Q9Y673) 0.233, UTP18 C241 (UniProt Q9Y5J1) 0.238, UniProt Q9Y4B6_C784 0.615, TELO2 C644 (UniProt Q9Y4R8) 0.306, FHOD1 C31 (UniProt Q9Y613) 0.248, LSM4 C32 (UniProt Q9Y4Z0) 0.146, USP15 C264 (UniProt Q9Y4E8) 0.528, YTHDF2 C482 (UniProt Q9Y5A9) 0.44, TELO2 C518 (UniProt Q9Y4R8) -0.218, NUBP2 C54 (UniProt Q9Y5Y2) 0.284, CD2AP C540 (UniProt Q9Y5K6) 0.456, TRAPPC1 C115 (UniProt Q9Y5R8) 0.0989, RNF114 C8 (UniProt Q9Y508) 0.412, TLN1 C2243 (UniProt Q9Y490) 0.0807, TBL2 C335 (UniProt Q9Y4P3) 0.9, UniProt Q9Y4C1_C947 0.215, LAS1L C306 (UniProt Q9Y4W2) 0.239, MTCH2 C49 (UniProt Q9Y6C9) -0.016, TCAF1 C487 (UniProt Q9Y4C2) 0.36, TAF6L C41 (UniProt Q9Y6J9) 0.0349, UniProt Q9Y5J5_C87 0.486, CLIC4 C100 (UniProt Q9Y696) 0.0178, UniProt Q9Y4B6_C1070 0.183, TLN1 C1939 (UniProt Q9Y490) 0.202, CLIC4 C35 (UniProt Q9Y696) 0.172, PPME1 C238 (UniProt Q9Y570) 0.176, NFS1 C426 (UniProt Q9Y697) 0.148
